These results are taken from paper doi:10.1101/2021.08.02.453806.

The target of one assay is T1, CHK-2::HA (C. elegans) (UniProt Q9U1Y5).
T1 sequence: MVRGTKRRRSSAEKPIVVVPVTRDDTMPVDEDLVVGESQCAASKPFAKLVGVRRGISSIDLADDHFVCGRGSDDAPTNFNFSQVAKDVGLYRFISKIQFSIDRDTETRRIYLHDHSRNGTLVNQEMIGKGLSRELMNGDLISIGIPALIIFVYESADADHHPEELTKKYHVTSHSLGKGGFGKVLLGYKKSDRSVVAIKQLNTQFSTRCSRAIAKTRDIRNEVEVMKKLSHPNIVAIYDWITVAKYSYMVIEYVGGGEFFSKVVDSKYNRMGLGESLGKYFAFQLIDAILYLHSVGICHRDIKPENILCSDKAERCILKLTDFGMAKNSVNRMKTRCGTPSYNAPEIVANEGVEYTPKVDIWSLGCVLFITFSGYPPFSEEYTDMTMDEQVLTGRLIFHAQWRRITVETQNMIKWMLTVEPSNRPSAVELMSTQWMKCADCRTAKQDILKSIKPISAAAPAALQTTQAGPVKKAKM
In words: affinity purification with mass spectrometry.

The target of the next assay is HA::PPM-1.D (C. elegans) (UniProt Q95XK4). The assay is described as follows: affinity purification with mass spectrometry.

These are yes or no findings as the source states them, for the method shown. Binding seen in cells or lysates may run through a third protein. These calls come from enrichment with a bait or labelling near it, and not all partners need be listed. For some assays here: Where a sequence is shown, tags or fusion partners need not be part of it.

For “PPM-1.D (C. elegans (endogenous in C. elegans)) (enzyme)”, in the assay with CHK-2::HA (C. elegans), the binding result is “binds”.

B1: CHK-2 (enzyme, UniProt Q9U1Y5 1-476)
chain: MVRGTKRRRSSAEKPIVVVPVTRDDTMPVDEDLVVGESQCAASKPFAKLVGVRRGISSIDLADDHFVCGRGSDDAPTNFNFSQVAKDVGLYRFISKIQFSIDRDTETRRIYLHDHSRNGTLVNQEMIGKGLSRELMNGDLISIGIPALIIFVYESADADHHPEELTKKYHVTSHSLGKGGFGKVLLGYKKSDRSVVAIKQLNTQFSTRCSRAIAKTRDIRNEVEVMKKLSHPNIVAIYDWITVAKYSYMVIEYVGGGEFFSKVVDSKYNRMGLGESLGKYFAFQLIDAILYLHSVGICHRDIKPENILCSDKAERCILKLTDFGMAKNSVNRMKTRCGTPSYNAPEIVANEGVEYTPKVDIWSLGCVLFITFSGYPPFSEEYTDMTMDEQVLTGRLIFHAQWRRITVETQNMIKWMLTVEPSNRPSAVELMSTQWMKCADCRTAKQDILKSIKPISAAAPAALQTTQAGPVKKAKM
Take B1: the binding entry with HA::PPM-1.D (C. elegans) is listed as “binds”.
